No constants are given. Whether binding was seen depends on the method and setting. In cells and extracts the contact can be indirect. For some of these results: Binding can be weak; no strength is given.
What was measured:
[1] = molecular target: FLAG-tagged SOX2 lacking the HMG DNA binding domain (F-SOX2-ΔHMG) (UniProt P48432); assay: co-IP; HEK cells co-transfected with tagged constructs, harvested 24 h later; total cell extract in 20 mM Tris pH8, 137 mM NaCl, 10 mM EDTA, 1% NP40, 10% glycerol; antibodies against myc or FLAG 2 h at 4°C, protein G beads; Western blot
[2] = molecular target: FLAG-tagged SOX2 lacking the transactivation domain (F-SOX2-ΔTAD); assay: as above

The chains behind the UniProt entries cited, without tags or fusion partners. Where a name states a change or a piece, a line headed by the entry shows the natural chain unless it says otherwise.
UniProt P48432: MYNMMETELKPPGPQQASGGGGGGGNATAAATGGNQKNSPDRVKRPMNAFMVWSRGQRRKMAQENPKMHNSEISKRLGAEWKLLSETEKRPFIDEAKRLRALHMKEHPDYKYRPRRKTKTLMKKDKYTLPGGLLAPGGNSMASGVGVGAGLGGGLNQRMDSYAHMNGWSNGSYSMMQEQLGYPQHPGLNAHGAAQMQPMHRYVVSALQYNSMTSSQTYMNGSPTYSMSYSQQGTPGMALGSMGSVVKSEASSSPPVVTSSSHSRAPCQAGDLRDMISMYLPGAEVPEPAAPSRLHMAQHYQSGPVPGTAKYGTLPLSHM

Binder	binding [1]	binding [2]
CUX1 879-1336 (domain or fragment, UniProt P39880 879-1336) WKEWPSAESPYSQSSELSLTGASRSETPQNSPLPSSPIVPMSKPTKPSVPPLTPEQYEVYMYQEVDTIELTRQVKEKLAKNGICQRIFGEKVLGLSQGSVSDMLSRPKPWSKLTQKGREPFIRMQLWLNGELGQGVLPVQGQQQGPVLHSVTSLQDPLQQGCVSSESTPKTSASCSPAPESPMSSSESVKSLTELVQQPCPPIEASKDSKPPEPSDPPASDSQPTTPLPLSGHSALSIQELVAMSPELDTYGITKRVKEVLTDNNLGQRLFGETILGLTQGSVSDLLARPKPWHKLSLKGREPFVRMQLWLNDPNNVEKLMDMKRMEKKAYMKRRHSSVSDSQPCEPPSVGTEYSQGASPQPQHQLKKPRVVLAPEEKEALKRAYQQKPYPSPKTIEDLATQLNLKTSTVINWFHNYRSRIRRELFIEEIQAGSQGQAGASDSPSARSGRAAPSSEGD	no binding	binds
CUX1 659-1505 (domain or fragment, UniProt P39880 659-1505) RIRASETGSDEAIKSILEQAKRELQVQKTAEPAQPSSASGSGNSDDAIRSILQQARREMEAQQAALDPALKQAPLSQSDITILTPKLLSTSPMPTVSSYPPLAISLKKPSAAPEAGASALPNPPALKKEAQDAPGLDPQGAADCAQGVLRQVKNEVGRSGAWKDHWWSAVQPERRNAASSEEAKAEETGGGKEKGSGGSGGGSQPRAERSQLQGPSSSEYWKEWPSAESPYSQSSELSLTGASRSETPQNSPLPSSPIVPMSKPTKPSVPPLTPEQYEVYMYQEVDTIELTRQVKEKLAKNGICQRIFGEKVLGLSQGSVSDMLSRPKPWSKLTQKGREPFIRMQLWLNGELGQGVLPVQGQQQGPVLHSVTSLQDPLQQGCVSSESTPKTSASCSPAPESPMSSSESVKSLTELVQQPCPPIEASKDSKPPEPSDPPASDSQPTTPLPLSGHSALSIQELVAMSPELDTYGITKRVKEVLTDNNLGQRLFGETILGLTQGSVSDLLARPKPWHKLSLKGREPFVRMQLWLNDPNNVEKLMDMKRMEKKAYMKRRHSSVSDSQPCEPPSVGTEYSQGASPQPQHQLKKPRVVLAPEEKEALKRAYQQKPYPSPKTIEDLATQLNLKTSTVINWFHNYRSRIRRELFIEEIQAGSQGQAGASDSPSARSGRAAPSSEGDSCDGVEATEGPGSADTEEPKSQGEAEREEVPRPAEQTEPPPSGTPGPDDARDDDHEGGPVEGPGPLPSPASATATAAPAAPEDAATSAAAAPGEGPAAPSSAPPPSNSSSSSAPRRPSSLQSLFGLPEAAGARDSRDNPLRKKKAANLNSIIHRLEKAASREEPIEWEF	no binding	binds

From PMC9124971
